Source: article PMC11428915
Results are given in words; binding and its absence hold for the method and conditions named. In cells and extracts the contact can be indirect. Binding can be weak; no strength is given.

By UniProt entry, the sequences of proteins in these tests, tags left out. Where a name states a change or a piece, a line headed by the entry shows the natural chain unless it says otherwise.
UniProt O60637: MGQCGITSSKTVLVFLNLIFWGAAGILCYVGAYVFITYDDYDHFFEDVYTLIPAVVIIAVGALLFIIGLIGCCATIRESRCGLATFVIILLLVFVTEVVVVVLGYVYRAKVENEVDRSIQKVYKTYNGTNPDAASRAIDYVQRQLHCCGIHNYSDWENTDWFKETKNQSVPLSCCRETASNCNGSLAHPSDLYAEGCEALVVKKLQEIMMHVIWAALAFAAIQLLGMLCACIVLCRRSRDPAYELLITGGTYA
UniProt P05556: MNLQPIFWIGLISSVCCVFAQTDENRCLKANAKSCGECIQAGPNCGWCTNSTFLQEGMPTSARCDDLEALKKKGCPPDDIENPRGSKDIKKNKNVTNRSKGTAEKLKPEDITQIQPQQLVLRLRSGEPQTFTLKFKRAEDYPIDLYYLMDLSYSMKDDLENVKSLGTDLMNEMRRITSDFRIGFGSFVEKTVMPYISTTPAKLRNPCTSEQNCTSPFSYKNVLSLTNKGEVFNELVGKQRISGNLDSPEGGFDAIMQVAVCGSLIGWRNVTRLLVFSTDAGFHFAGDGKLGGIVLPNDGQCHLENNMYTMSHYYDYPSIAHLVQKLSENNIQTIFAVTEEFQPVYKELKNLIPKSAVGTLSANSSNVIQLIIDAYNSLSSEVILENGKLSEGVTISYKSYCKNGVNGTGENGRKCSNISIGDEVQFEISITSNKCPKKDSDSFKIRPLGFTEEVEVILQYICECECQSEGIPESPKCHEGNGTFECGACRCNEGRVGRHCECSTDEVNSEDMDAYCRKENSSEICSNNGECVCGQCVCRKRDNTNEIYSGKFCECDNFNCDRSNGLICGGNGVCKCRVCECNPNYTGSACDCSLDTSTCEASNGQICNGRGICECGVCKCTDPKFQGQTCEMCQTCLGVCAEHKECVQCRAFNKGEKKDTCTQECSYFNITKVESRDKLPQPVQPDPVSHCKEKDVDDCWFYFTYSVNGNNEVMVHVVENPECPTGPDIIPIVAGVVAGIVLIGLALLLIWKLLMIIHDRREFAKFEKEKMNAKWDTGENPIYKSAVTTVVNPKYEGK
UniProt P62491: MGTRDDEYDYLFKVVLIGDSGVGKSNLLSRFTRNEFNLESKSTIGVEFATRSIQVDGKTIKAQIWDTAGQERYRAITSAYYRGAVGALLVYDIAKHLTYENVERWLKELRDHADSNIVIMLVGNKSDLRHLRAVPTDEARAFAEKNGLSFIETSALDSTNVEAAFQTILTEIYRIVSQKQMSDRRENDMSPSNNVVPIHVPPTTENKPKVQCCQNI

Biological target: TSPAN3-ΔLEL mutant (LEL domain deleted), GFP-tagged (UniProt O60637)
Assay: co-IP; A549 cells, 48 h after transfection of wild-type GFP-TSPAN3 or TSPAN3-ΔLEL; lysates immunoprecipitated with anti-GFP antibody, western blot of the partner

Substance	binding
β1 integrin, endogenous in A549 cells (from UniProt P05556 21-798) (receptor)	no binding
Ras-related protein Rab-11a, endogenous in A549 cells (from UniProt P62491 1-216)	binds
